Data published in PMC9021268.
These are yes or no findings as the source states them, for the method shown. Binding seen in cells or lysates may run through a third protein. Some results given as binding are weak or reduced against the parent protein; the word gives no strength. Where a sequence is shown, tags or fusion partners need not be part of it.

Amino acid sequences for entries named in this document (tags omitted).
UniProt P40460: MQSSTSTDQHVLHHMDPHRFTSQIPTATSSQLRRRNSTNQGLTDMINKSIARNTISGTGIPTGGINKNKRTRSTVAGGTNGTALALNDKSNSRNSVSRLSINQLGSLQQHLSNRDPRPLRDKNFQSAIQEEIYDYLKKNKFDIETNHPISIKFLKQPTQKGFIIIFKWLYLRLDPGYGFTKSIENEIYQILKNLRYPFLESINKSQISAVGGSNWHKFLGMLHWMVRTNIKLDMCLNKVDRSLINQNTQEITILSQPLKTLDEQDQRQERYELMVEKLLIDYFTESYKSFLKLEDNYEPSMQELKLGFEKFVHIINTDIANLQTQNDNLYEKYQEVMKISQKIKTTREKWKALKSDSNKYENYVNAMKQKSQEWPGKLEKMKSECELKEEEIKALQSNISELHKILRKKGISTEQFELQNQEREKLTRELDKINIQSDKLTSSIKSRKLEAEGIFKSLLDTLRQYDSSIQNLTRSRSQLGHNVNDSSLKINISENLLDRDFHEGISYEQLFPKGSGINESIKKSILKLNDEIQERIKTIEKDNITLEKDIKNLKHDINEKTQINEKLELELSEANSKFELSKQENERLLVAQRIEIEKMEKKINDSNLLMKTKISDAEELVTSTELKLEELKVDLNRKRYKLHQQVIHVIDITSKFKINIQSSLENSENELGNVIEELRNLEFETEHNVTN

Biological target: T1, Dsn1 with 6xHis and 3xFlag tags on its C-terminus (S. cerevisiae) (UniProt P40568)
T1 sequence: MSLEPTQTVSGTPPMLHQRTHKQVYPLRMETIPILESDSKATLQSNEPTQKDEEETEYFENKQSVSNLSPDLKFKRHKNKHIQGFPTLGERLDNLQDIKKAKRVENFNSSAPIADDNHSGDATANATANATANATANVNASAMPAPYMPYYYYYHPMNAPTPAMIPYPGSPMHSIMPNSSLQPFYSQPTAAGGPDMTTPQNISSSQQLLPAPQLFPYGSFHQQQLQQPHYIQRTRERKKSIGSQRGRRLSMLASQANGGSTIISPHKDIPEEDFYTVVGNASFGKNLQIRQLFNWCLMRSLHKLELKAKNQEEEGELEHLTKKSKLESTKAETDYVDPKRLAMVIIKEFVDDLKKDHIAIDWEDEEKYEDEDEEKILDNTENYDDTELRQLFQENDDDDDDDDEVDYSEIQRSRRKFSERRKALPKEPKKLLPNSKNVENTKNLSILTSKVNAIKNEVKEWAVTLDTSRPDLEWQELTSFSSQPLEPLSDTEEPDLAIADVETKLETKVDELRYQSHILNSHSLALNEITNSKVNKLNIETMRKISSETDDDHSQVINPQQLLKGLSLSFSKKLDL
Assay: co-IP; anti-flag Dynabeads on clarified yeast lysate (Dsn1-6His-3Flag, strain SBY8726 shifted to 37 °C), Buffer H (150 mM KCl, 0.1% NP-40), two hours at 4 °C, five washes; immunoblot

- binding: binds
Substance: Ndc80 (from UniProt P40460 1-691)
